Laboratory results taken from the supplement of paper PMC10398353.
Counter-ions that a name gives are not always drawn. The list shows a part of the results. This is a noisy data set.

Tested on: Salmonella enterica serovar Typhimurium ST313 D23580
Test: normalized bacterial growth (OD600 20 h minus 0 h, interquartile-mean normalized) (fraction of plate interquartile mean); higher = more bacterial growth (less inhibition)
Conditions: LPM (pH 5.8, low phosphate, low Mg2+), concentration: 10 µM, temperature: 37 °C

Compound	normalized bacterial growth
O=[N+]([O-])c1cccc2c(Br)[nH]nc12 [3-Bromo-7-nitroindazole]	1
NC1(C(=O)O)CCC1	1.22
N=C(N)NC(=O)c1nc(Cl)c(N)nc1N [Amiloride hydrochloride]	1.1
N=C(N)NC(=O)c1nc(Cl)c(N)nc1N [Amiloride hydrochloride dihydrate]	0.981
O=C(O)CCC(=O)N1CCC[C@H]1C(=O)O [N-Succinyl-L-proline]	0.495
CC(=O)O[C@H]1CC[C@]2(C)C(C[C@@H](OC(C)=O)[C@]3(C)C4=CC(=O)O[C@H](c5ccoc5)[C@@]4(C)CCC23)C1(C)C (stereo partly drawn) [3-DEOXO-3beta-ACETOXYDEOXYDIHYDROGEDUNIN]	0.875
COc1cccc(OC)c1OCCNCC1COc2ccccc2O1 (stereo not given) [WB-4101 hydrochloride]	1
O=C1NCN(c2ccccc2)C12CCN(CCCC(c1ccc(F)cc1)c1ccc(F)cc1)CC2 [Fluspirilene]	0.76
CCOc1ccc(C(=O)c2ccc(OC)c(O)c2O)cc1	1.09
Cc1cc(C2CCCCC2)n(O)c(=O)c1	0.225
C=C1CC/C=C(/C)CC[C@@H]2[C@@H]1CC2(C)C	0.959
O=C(O)c1cc2cc(Cl)ccc2[nH]1	1.26
O=C(O)c1cc(=O)c2ccccc2o1	0.966
CC(=O)CC(=O)CCC(=O)O	0.941
COc1ccc2oc(-c3ccccc3)c(OC)c(=O)c2c1	1.05
COc1ccc2ccc(=O)oc2c1	1.17
NC(=S)c1ccc[n+]([C@@H]2O[C@@H](COP(=O)([O-])OP(=O)(O)OC[C@H]3O[C@@H](n4cnc5c(N)ncnc54)C(OP(=O)(O)O)[C@H]3O)C(O)C2O)c1 (stereo not given in full) [Thio-NADP sodium]	0.789
NS(=O)(=O)c1cc(C(=O)O)c(NCc2ccco2)cc1Cl	1.2
NS(=O)(=O)c1cc(C(=O)O)c(NCc2ccco2)cc1Cl [Furosemide]	1.23
CC(=O)Oc1cc(C)c2c(c1C(OC(C)=O)OC(C)=O)Oc1c(c(C)c(OC(C)=O)c3c1C(OC(C)=O)OC3=O)OC2=O (stereo not given)	0.988

Compound	normalized bacterial growth
CCC(CCC(C)C1CCC2C3CCC4CC(O)CCC4(C)C3CCC12C)C(C)C (stereo not given)	1.12
NC(=O)c1ncn([C@@H]2O[C@H](CO)[C@@H](O)[C@H]2O)n1 [Ribavirin]	1.28
CCOc1ccc2c(c1)C(C)=CC(C)(C)N2 [Ethoxyquin]	0.906
CCOC(=O)[C@H](CCc1ccccc1)N[C@@H](C)C(=O)N1[C@H](C(=O)O)C[C@@H]2CCC[C@@H]21	1.05
CC1=CC2C(C(C)C)CCC(C)(O)C2CC1 (stereo not given)	1.32
Cn1c(=O)c2[nH]c(C3CCCC3)nc2n(C)c1=O ["8-Cyclopentyl-1,3-dimethylxanthine"]	1.16
C=NC(C(=O)NC1C(=O)N2C1SC(C)(C)C2C(=O)O)c1ccccc1 (stereo not given)	0.88
CC(C)COCC(CN(Cc1ccccc1)c1ccccc1)N1CCCC1 (stereo not given) [Bepridil hydrochloride]	0.568
NS(=O)(=O)c1cc2c(cc1Cl)N=CNS2(=O)=O [Chlorothiazide]	1.05
CNS(=O)(=O)Cc1ccc2[nH]cc(CCN(C)C)c2c1	0.407
O=c1c(O)c(-c2ccc(O)c(O)c2)oc2cc(O)ccc12	0.824
C[C@H](N)C(=O)NC(Cc1ccccc1)C(=O)O (mixture of isomers)	1.01
CN[C@H](CC(C)C)C(=O)N[C@H]1C(=O)N[C@@H](CC(N)=O)C(=O)N[C@H]2C(=O)N[C@H]3C(=O)N[C@H](C(=O)N[C@H](C(=O)O)c4cc(O)cc(O)c4-c4cc3ccc4O)[C@H](O)c3ccc(c(Cl)c3)Oc3cc2cc(c3O[C@@H]2O[C@H](CO)[C@@H](O)[C@H](O)[C@H]2O[C@H]2C[C@](C)(N)[C@H](O)[C@H](C)O2)Oc2ccc(cc2Cl)[C@H]1O	1.11
CN[C@H](CC(C)C)C(=O)N[C@H]1C(=O)N[C@@H](CC(N)=O)C(=O)N[C@H]2C(=O)N[C@H]3C(=O)N[C@H](C(=O)N[C@H](C(=O)O)c4cc(O)cc(O)c4-c4cc3ccc4O)[C@H](O)c3ccc(c(Cl)c3)Oc3cc2cc(c3O[C@@H]2O[C@H](CO)[C@@H](O)[C@H](O)[C@H]2O[C@H]2C[C@](C)(N)[C@H](O)[C@H](C)O2)Oc2ccc(cc2Cl)[C@H]1O [Vancomycin hydrochloride from Streptomyces orientalis]	1.13
CN[C@H](CC(C)C)C(=O)N[C@H]1C(=O)N[C@@H](CC(N)=O)C(=O)N[C@H]2C(=O)N[C@H]3C(=O)N[C@H](C(=O)N[C@H](C(=O)O)c4cc(O)cc(O)c4-c4cc3ccc4O)[C@H](O)c3ccc(c(Cl)c3)Oc3cc2cc(c3O[C@@H]2O[C@H](CO)[C@@H](O)[C@H](O)[C@H]2O[C@H]2C[C@](C)(N)[C@H](O)[C@H](C)O2)Oc2ccc(cc2Cl)[C@H]1O [Vancomycin hydrochloride]	1.42
COc1cccc(C(=O)NCCN2CCN(c3ccc(Cl)cc3)CC2)c1	0.804
C=C(C)[C@@H]1CC=C(CO)CC1	1.06
COC1=C(OC)C(=O)C(C/C=C(\C)CC/C=C(\C)CC/C=C(\C)CC/C=C(/C)CC/C=C(\C)CC/C=C(\C)CC/C=C(\C)CC/C=C(\C)CC/C=C(\C)CCC=C(C)C)=C(C)C1=O	1.02
c1ccc(CNc2ncnc3nc[nH]c23)cc1 ["Aminopurine, 6-benzyl"]	0.947
CN1Cc2c(N)cccc2C(c2ccccc2)C1 (stereo not given) [Nomifensine maleate]	1.04

As a short view, part of the list above:
Compound	normalized bacterial growth
CCC(CCC(C)C1CCC2C3CCC4CC(O)CCC4(C)C3CCC12C)C(C)C (stereo not given)	1.12
NC(=O)c1ncn([C@@H]2O[C@H](CO)[C@@H](O)[C@H]2O)n1 [Ribavirin]	1.28
CCOc1ccc2c(c1)C(C)=CC(C)(C)N2 [Ethoxyquin]	0.906
